The record followed here is publication PMC5974779, “Prediction of Drug-Induced Hepatotoxicity Using Long-Term Stable Primary Hepatic 3D Spheroid Cultures in Chemically Defined Conditions” (Toxicological Sciences, 2018).

In this series the test system is primary human hepatocytes (PHH) 3D spheroids.

`CN(C)CCN(Cc1cccs1)c1ccccn1` [Methapyrilene]: the “Chemically defined spheroids (this study) 20x” value is given as “Negative”.

`Cc1ccccc1C(OCCN(C)C)c1ccccc1` (centres unmarked) [Orphenadrine]: the “Chemically defined spheroids (this study) 20x” value is recorded as “Negative”.
